Laboratory results: PubChem BioAssay AID1259405 (NCATS, 2018)

Test: 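Silenced genes that increase secreted GFP made by CHO cells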 (primary screen)
System: Chinese hamster CHO-K1 ovary cells with stable secreted eGFP expression
Knock-down reagent: single siRNA against mouse genes, 0.8 pmol siRNA per well (2 µl of 400 nM stock)
Time to read-out: 3 days
Measurement: 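Per-well intracellular GFP measured by laser scanning cytometry, plus viability from ATP luminescence, each relative to plate median of non-targeting control wells, in %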
Scale: GFP, % of control: higher = more GFP per well, higher productivity; viability (ATP), % of control: higher = more viable cells (more ATP)
Call rule: 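Called active when intracellular GFP, relative to negative control, is at or above 120%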
The deposit covers about 50,000 reagents; shown is an unselected part. Over the whole deposit, about 4,000 (8%) got an active call. 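Mouse siRNA library applied to hamster cells; one well for each siRNA.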 A number with no mark means an inactive call. The numbers tell different reagents against one gene apart.

With Nxpe5 (GeneID 381680) #1, what does the deposit list?
GFP, % of control: 42.4; viability (ATP), % of control: 52.9

With Nxpe5 (GeneID 381680) #2, how do the results read?
GFP, % of control: 90; viability (ATP), % of control: 73.5

What did the screen give for Nxpe5 (GeneID 381680) #3?
GFP, % of control: 161 (active); viability (ATP), % of control: 86.3

What is on record for Ripor1 (GeneID 75687) #1?
GFP, % of control: 122 (active); viability (ATP), % of control: 109

With Ripor1 (GeneID 75687) #2, what was measured?
GFP, % of control: 113; viability (ATP), % of control: 80.2

What is on record for Ripor1 (GeneID 75687) #3?
GFP, % of control: 116; viability (ATP), % of control: 105

How did the screen score Hrob (GeneID 217216) #1?
GFP, % of control: 51; viability (ATP), % of control: 69.9

With Hrob (GeneID 217216) #2, how do the results read?
GFP, % of control: 76.5; viability (ATP), % of control: 88.3

How did the screen score Hrob (GeneID 217216) #3?
GFP, % of control: 136 (active); viability (ATP), % of control: 89.3

For Or8g27 (GeneID 258500) #1, what does the deposit list?
GFP, % of control: 79.6; viability (ATP), % of control: 52.5

What did the screen give for Or8g27 (GeneID 258500) #2?
GFP, % of control: 40; viability (ATP), % of control: 41

With Or8g27 (GeneID 258500) #3, what does the deposit list?
GFP, % of control: 80.2; viability (ATP), % of control: 60.1

With Slc26a9 (GeneID 320718) #1, what was measured?
GFP, % of control: 66.1; viability (ATP), % of control: 61.9

What is on record for Slc26a9 (GeneID 320718) #2?
GFP, % of control: 128 (active); viability (ATP), % of control: 111

How did the screen score Slc26a9 (GeneID 320718) #3?
GFP, % of control: 104; viability (ATP), % of control: 95.6

What is on record for Fam107b (GeneID 66540) #1?
GFP, % of control: 75.7; viability (ATP), % of control: 54.7

With Fam107b (GeneID 66540) #2, what does the deposit list?
GFP, % of control: 98.5; viability (ATP), % of control: 78.9

With Fam107b (GeneID 66540) #3, what was measured?
GFP, % of control: 107; viability (ATP), % of control: 61

How did the screen score Ankrd55 (GeneID 77318) #1?
GFP, % of control: 59.1; viability (ATP), % of control: 55.6

What did the screen give for Ankrd55 (GeneID 77318) #2?
GFP, % of control: 73.3; viability (ATP), % of control: 79.6

For Ankrd55 (GeneID 77318) #3, what was measured?
GFP, % of control: 88.9; viability (ATP), % of control: 110

What is on record for Slc7a7 (GeneID 20540) #1?
GFP, % of control: 79.2; viability (ATP), % of control: 52.6

For Slc7a7 (GeneID 20540) #2, what was measured?
GFP, % of control: 78.1; viability (ATP), % of control: 61.4

For Slc7a7 (GeneID 20540) #3, what does the deposit list?
GFP, % of control: 96.5; viability (ATP), % of control: 87

For Ywhaq (GeneID 22630) #1, how do the results read?
GFP, % of control: 74.8; viability (ATP), % of control: 83.4

For Ywhaq (GeneID 22630) #2, how do the results read?
GFP, % of control: 55.9; viability (ATP), % of control: 63.2

For Ywhaq (GeneID 22630) #3, what does the deposit list?
GFP, % of control: 49.9; viability (ATP), % of control: 54.4

What is on record for Calml3 (GeneID 70405) #1?
GFP, % of control: 84.1; viability (ATP), % of control: 101

For Calml3 (GeneID 70405) #2, what was measured?
GFP, % of control: 65.8; viability (ATP), % of control: 72.9

For Mtor (GeneID 56717), what does the deposit list?
GFP, % of control: 69.5; viability (ATP), % of control: 38.3

With Prkcz (GeneID 18762) #1, what does the deposit list?
GFP, % of control: 77.6; viability (ATP), % of control: 62.8

How did the screen score Prkcz (GeneID 18762) #2?
GFP, % of control: 87; viability (ATP), % of control: 87.4

With Prkcz (GeneID 18762) #3, how do the results read?
GFP, % of control: 69.3; viability (ATP), % of control: 78.8

With Il33 (GeneID 77125) #1, how do the results read?
GFP, % of control: 104; viability (ATP), % of control: 73.8

For Il33 (GeneID 77125) #2, how do the results read?
GFP, % of control: 29.7; viability (ATP), % of control: 22.1

For Il33 (GeneID 77125) #3, how do the results read?
GFP, % of control: 77.3; viability (ATP), % of control: 101

Which result is listed for Scn3a (GeneID 20269) #1?
GFP, % of control: 72.8; viability (ATP), % of control: 70.1

What did the screen give for Scn3a (GeneID 20269) #2?
GFP, % of control: 85.5; viability (ATP), % of control: 50.6

For Scn3a (GeneID 20269) #3, what does the deposit list?
GFP, % of control: 95.2; viability (ATP), % of control: 85.1

With Hoxa5 (GeneID 15402) #1, what does the deposit list?
GFP, % of control: 53; viability (ATP), % of control: 68.5

For Hoxa5 (GeneID 15402) #2, what does the deposit list?
GFP, % of control: 56.9; viability (ATP), % of control: 74.6

With Hoxa5 (GeneID 15402) #3, what was measured?
GFP, % of control: 76.4; viability (ATP), % of control: 80

Entries listed so far whose gene name starts with I or i:
Il33 (GeneID 77125) #1: GFP, % of control = 104; viability (ATP), % of control = 73.8
Il33 (GeneID 77125) #2: GFP, % of control = 29.7; viability (ATP), % of control = 22.1
Il33 (GeneID 77125) #3: GFP, % of control = 77.3; viability (ATP), % of control = 101
